Not every detail of the peptide structures is certain; ends, links or a residue may be inferred. Some entries repeat one wording, which the source may state once for all of them. Some of these results come from one statement about several compounds together. Some ranges recur; such a range may be that of the whole group of compounds. Non-standard residues stand in square brackets, D forms with d. Residues, ends and D or L forms follow the SMILES beside them. Bip = N[C@@H](Cc1ccc(-c2ccccc2)cc1)C(=O)O; dBip = N[C@H](Cc1ccc(-c2ccccc2)cc1)C(=O)O
Columns and labels:
[1] = tested on: rat model of ischemic nephropathy; assay: Rat model of ischemic nephropathy (bilateral renal artery occlusion): GFR, urine flow, renal plasma flow, BUN/creatinine, histology; format: in vivo, Sprague-Dawley rats; settings: for improvements in GFR, urine flow rate and renal plasma flow compared with the other peptides / GFR (glomerular filtration rate) / increase in GFR comparatively to 213.15: 1 mg/kg iv bolus; for GFR (glomerular filtration rate): average GFR over 60 min starting 20 min after drug; for increase in GFR comparatively to 213.15: over a 40 minute period following unclamping of the renal artery
Description: Bilateral clamping of the renal arteries for 30-60 minutes results in the […] of the kidneys and associated sequelae such as a dramatic decrease in glomerular filtration rate, urine output and tubular cell death. This model reproduces some important consequences of oligouric renal failure in humans. The efficacy of various 213.15 derivatives in reversing the renal damage was measured.
Sprague-Dawley rats (250-300 g) were anesthetized and the jugular vein was canulated for infusion with the peptide or with saline. In addition, the carotid artery was canulated to measure the arterial blood pressure with a pressure transducer (Gould) and to collect blood samples. The urinary bladder was canulated to collect urine. After catheterization, an infusion (1.6 ml/hr) of a mixture of [^3H] inulin (8 μCi/hr), [^14C] aminohippuric acid (0.8 μCi/hr) and anesthetics (ketamine and xylazine; 9:1 w:w; 0.095 ml/ml) was started. The animals were allowed to stabilize for a further 40 minutes. Two urine samples were collected over 10 minute periods, (from 40 to 50 minutes, and from 50 to 60 minutes) to assess the stability of the basal GFR. Blood samples were collected at 45 and 55 minutes respectively. The left and right renal arteries were then clamped for a period of 60 minutes to induce an acute renal ischemia. After the ischemic period, the animals were treated with peptides, 213.19-213.30, (1 mg/kg iv bolus) or with saline via the jugular vein. Blood and urine samples were then collected every 20 minutes for an additional period of 2 hours. Glomerular filtration rates (GFR) and urine flow rates, (measured by the [^3H] inulin method) as well as renal plasma flow (measured by the [^14C] aminohippuric acid method), were determined at different times and averaged for a 60 minute (20-80 minutes following the drug administration) period.
The efficacy of fenoldopam and 213.29, in improving kidney function in the rat model of ischemic nephropathy (described in Example 2) was compared. 213.29 was given as an iv bolus of 1 mg/kg whereas fenoldopam was given as an iv bolus of 0.6 μg/kg followed by 0.6 μg/kg/h for the duration of the experiment.
The kidneys from the animals used in Example 7 were collected 24 hours or 72 hours after the unclamping of the renal arteries and drug dosing. An histological examination of sections was performed.
In order to determiner whether increasing the frequency of administration of 213.29 has a beneficial effect on kidney function in the rat RAO-model, 1 mg/kg of 213.29 iv was injected once (qd) or twice (bid) a day and the kidney function compared on day 1 and day 5. […] Thus frequent dosing of 213.29 in conjunction with the pharmacokinetics of the drug may improve the kidney function in cases of renal insufficiency.

By UniProt entry, the sequences of proteins in these tests, tags left out. Where a name states a change or a piece, a line headed by the entry shows the natural chain unless it says otherwise.
UniProt P35408: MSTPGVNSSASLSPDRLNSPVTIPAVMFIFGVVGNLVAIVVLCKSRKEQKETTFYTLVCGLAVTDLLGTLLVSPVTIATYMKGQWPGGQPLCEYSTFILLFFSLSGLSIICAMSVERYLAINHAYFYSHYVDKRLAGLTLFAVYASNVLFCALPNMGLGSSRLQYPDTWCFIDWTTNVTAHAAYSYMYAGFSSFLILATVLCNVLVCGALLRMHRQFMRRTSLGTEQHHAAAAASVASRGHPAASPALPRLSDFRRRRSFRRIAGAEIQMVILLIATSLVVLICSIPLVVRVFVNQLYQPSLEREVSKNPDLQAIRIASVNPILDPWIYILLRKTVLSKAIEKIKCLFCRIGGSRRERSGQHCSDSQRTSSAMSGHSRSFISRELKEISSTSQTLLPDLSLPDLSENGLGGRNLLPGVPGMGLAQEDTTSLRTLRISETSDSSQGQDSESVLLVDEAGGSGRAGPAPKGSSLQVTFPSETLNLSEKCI

normal beagle dogs = assay: Dose response of 213.29 on kidney function in normal anesthetized Beagle dogs; format: in vivo, dog
human EP4 receptor = molecular target: T1, human EP4 receptor (Homo sapiens, UniProt P35408); assay: PGE2-stimulated cAMP synthesis in HEK293 cells recombinantly expressing human EP4 receptor (radioimmunoassay); format: cell-based; settings: for inhibition of PGE2-stimulated cAMP synthesis: 100 nM PGE2, HEK293 cells expressing human EP4; for stimulation of the receptor by the peptide by itself: without PGE2
T1 construct: expressed in transfected cells; host or cells: HEK293

[2] = tested on: prostanoid receptors EP2, EP1, FP, TP, EP3; assay: Selectivity: porcine retinal microvascular contractility assay with selective agonists of other prostanoid receptors; set-up: species or system newborn pigs
[3] = tested on: rat model of acute tubular necrosis; assay: Cisplatin-induced acute tubular necrosis rat model; format: in vivo, Sprague-Dawley male rats
normal rat = assay: Kidney function in normal rat; format: in vivo
normal piglet = assay: Kidney function in normal piglet; format: in vivo
[4] = 213.29 1 mg/kg iv bolus, fenoldopam 0.6 μg/kg iv bolus then 0.6 μg/kg/h
[5] = kidney histology 24 or 72 hours after unclamping, 1 mg/kg iv
[6] = cisplatin-treated rats, 213.29 5 mg/kg tid

CC(C)C[C@@H](NC(=O)[C@@H](C)NC(=O)[C@@H](CCC(=O)O)NC(=O)[C@@H](Cc1ccc(O)cc1)NC(=O)[C@@H](CCC(=O)O)NC(=O)[C@@H](CO)NC(=O)[C@H](NC(=O)[C@H](N)Cc1ccc(-c2ccccc2)cc1)[C@H](C)O)C(=O)N[C@@H](CCCCN)C(=O)O [Peptide 213.19, (bip)tseyealK] (H-[dBip][dT][dS][dE][dY][dE][dA][dL]K-OH; N-terminus and C-terminus assumed)
improvements in GFR, urine flow rate and renal plasma flow compared with the other peptides [1]: consistently superior to the other peptides | GFR (glomerular filtration rate) [1]: increase in GFR

CC(C)C[C@@H](NC(=O)[C@@H](C)NC(=O)[C@@H](CCC(=O)O)NC(=O)[C@@H](Cc1ccc(O)cc1)NC(=O)[C@@H](CCC(=O)O)NC(=O)[C@@H](CO)NC(=O)[C@H](NC(=O)[C@H](N)Cc1ccc(-c2ccccc2)cc1)[C@H](C)O)C(=O)N[C@@H](CCCCN)C(=O)N[C@@H](CCCCN)C(=O)O [Peptide 213.21, (bip)tseyealKK] (H-[dBip][dT][dS][dE][dY][dE][dA][dL]KK-OH; N-terminus and C-terminus assumed)
improvements in GFR, urine flow rate and renal plasma flow compared with the other peptides [1]: consistently superior to the other peptides | GFR (glomerular filtration rate) [1]: increase in GFR

CC(C)C[C@H](NC(=O)[C@@H](C)NC(=O)[C@@H](CCC(=O)O)NC(=O)[C@@H](Cc1ccc(O)cc1)NC(=O)[C@@H](CCC(=O)O)NC(=O)[C@@H](CO)NC(=O)[C@H](NC(=O)[C@H](N)Cc1ccc(-c2ccccc2)cc1)[C@H](C)O)C(=O)N[C@@H](CCCCN)C(=O)N[C@@H](CCCCN)C(=O)O [Peptide 213.28, (bip)tseyeaLKK] (H-[dBip][dT][dS][dE][dY][dE][dA]LKK-OH; N-terminus and C-terminus assumed)
increase in GFR comparatively to 213.15 [1]: 4 fold

CC(C)C[C@H](NC(=O)[C@@H](C)NC(=O)[C@@H](CCC(=O)O)NC(=O)[C@@H](Cc1ccc(O)cc1)NC(=O)[C@@H](CCC(=O)O)NC(=O)[C@@H](CO)NC(=O)[C@H](NC(=O)[C@@H](N)Cc1ccc(-c2ccccc2)cc1)[C@H](C)O)C(=O)N[C@@H](CCCCN)C(=O)N[C@@H](CCCCN)C(=O)O [Peptide 213.29, (Bip)tseyeaLKK] (H-[Bip][dT][dS][dE][dY][dE][dA]LKK-OH; N-terminus and C-terminus assumed)
increase in GFR comparatively to 213.15 [1]: 5 fold | GFR, RPF and urine flow rate (UV), qd versus bid ([1]; 1 mg/kg iv once (qd) or twice (bid) a day, by day 4): improved to the same extent | GFR, RPF and urine flow rate (UV), bid rather than qd ([1]; 1 mg/kg iv twice a day versus once a day, day 1): dramatic improvement | renal perfusion and GFR [1, 4]: improve renal perfusion and GFR significantly | urine output [1, 4]: increased urine output to a similar extent | blood urea nitrogen (BUN) and serum creatinine levels ([1]; after 72 hours, 213.29 1 mg/kg iv bolus, fenoldopam 0.6 μg/kg bolus then 0.6 μg/kg/h): equally efficacious in reducing BUN and creatinine levels | number of collecting ducts containing cell debris [1, 5]: significantly reduced | number of glomeruli showing periglomerular extravasation [1, 5]: significantly reduced | dose giving dramatic and maximal increase in GFR and urine flow rate (normal beagle dogs; bolus i.v., incremental doses 1-10 mg/kg, normal dogs): 4 mg/kg | renal perfusion, GFR and urine output (normal beagle dogs; normal dog): increased renal perfusion, elevated GFR, and increased urine output | inhibition of PGE2-stimulated cAMP synthesis (human EP4 receptor): 20-30% | stimulation of the receptor by the peptide by itself (human EP4 receptor): did not elicit stimulation of the receptor | selectivity to prostanoid receptor EP4 ([2]; 10 μM): highly selective | effect on contractile or dilatory responses of receptor selective agonists of prostanoid receptors ([2]; 213.29 10 μM, 0.1 μM ligands (butaprost-EP2; 17-phenyl PGE2-EP1; PGF2a-FP; U46619-TP; M&B28767-EP3)): did not affect the contractile or dilatory responses | GFR, RPF and UV compared to saline treated rats ([3]; cisplatin 17.5 mg/kg day 1, 213.29 1 mg/kg iv on day 5): improved dramatically | parameters of kidney function (GFR, RPF, UV) ([3]; cisplatin 17.5 mg/kg day 1, 213.29 5 mg/kg tid from day 2 till day 5): reached levels seen in normal healthy rats | blood urea nitrogen and creatinine levels [3, 6]: reduced | kidney histology: hypertrophic glomeruli and collecting ducts containing occlusions [3, 6]: reduced hypertrophic glomeruli as well as the number of collecting ducts containing occlusions | renal perfusion, GFR and urine output (normal rat): increased renal perfusion, elevated GFR, and increased urine output | renal perfusion, GFR and urine output (normal piglet): increased renal perfusion, elevated GFR, and increased urine output

CC(C)C[C@H](NC(=O)[C@@H](C)NC(=O)[C@@H](CCC(=O)O)NC(=O)[C@@H](Cc1ccc(O)cc1)NC(=O)[C@@H](CCC(=O)O)NC(=O)[C@@H](CO)NC(=O)[C@H](NC(=O)[C@@H](N)Cc1ccc(-c2ccccc2)cc1)[C@H](C)O)C(=O)N[C@@H](CCCCN)C(=O)O [Peptide 213.291] (H-[Bip][dT][dS][dE][dY][dE][dA]LK-OH; N-terminus and C-terminus assumed)
inhibition of PGE2-stimulated cAMP synthesis (human EP4 receptor): 20-30% | stimulation of the receptor by the peptide by itself (human EP4 receptor): did not elicit stimulation of the receptor

CC(C)C[C@H](NC(=O)[C@@H](C)NC(=O)[C@@H](CCC(=O)O)NC(=O)[C@@H](Cc1ccc(O)cc1)NC(=O)[C@@H](CCC(=O)O)NC(=O)[C@@H](CO)NC(=O)[C@H](NC(=O)[C@@H](N)Cc1ccc(-c2ccccc2)cc1)[C@H](C)O)C(=O)O [Peptide 213.292] (H-[Bip][dT][dS][dE][dY][dE][dA]L-OH; N-terminus and C-terminus assumed)
inhibition of PGE2-stimulated cAMP synthesis (human EP4 receptor): 20-30% | stimulation of the receptor by the peptide by itself (human EP4 receptor): did not elicit stimulation of the receptor

Reference: patent US20040023853A1, “Antagonistic peptides of prostaglandin E2 receptor subtype EP4” (priority 2002, published 2004)
